# Values joined by “and” are separate entries in the source; they are usually repeats but may differ in a detail not shown here. Identical values can stand only once. The campaign covered roughly 360,000 compounds. About 7,500 (2.1%) were called active. The shares of active, inactive and inconclusive entries below differ from those in the screen. Calls come from the whole dose curve; as a rule, active = well fitted inhibition curve with a large enough effect; inconclusive = small, poorly fitted or top-dose-only effect, or effect the other way; inactive = flat fitted curve, though single readings scatter. A potency beside an inconclusive call is a rough fit, not a confirmed value.
# Assay: Nrf2 qHTS screen for inhibitors; note: nearly all actives have a fitted effect of over 60% in size
# Settings: A549 ARE-Fluc reporter, luciferase luminescence, 18-24 h; activity change, negative = inhibition: at 46 µM (top of the series)
# How it was run: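 In this cell-based qHTS, ARE-driven firefly luciferase in A549 cells reports Nrf2 activity; the luminescent signal after BugLite lysis is the measured value, with a prior CellTiter-Fluor read for cell health.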
# % is set by controls: 0 for no effect and ±100 for the full control effect; potency is the fitted concentration of half-maximal effect.
Structure (SMILES),Potency,"activity change, negative = inhibition"
CCOC(=O)N1CCN(c2ccc(S(=O)(=O)N(Cc3ccccc3)Cc3ccccc3)cn2)CC1,active: 16.4 µM,
O=C(c1ccc2c(c1)CCN2S(=O)(=O)c1ccc(Cl)cc1)N1CCN(c2ccc(F)cc2)CC1,"inconclusive: 23.1 µM [falling, partial curve, poor fit]",
CCOc1ccc(OCC)c(NC(=O)c2ccc(CNc3c(N4CCCC4)c(=O)c3=O)cc2)c1,"inconclusive: 6.51 µM [falling, partial curve, poor fit]",
CCOC(=O)CNC(=O)N1[C@H](c2cccs2)[C@@H](C)C(=O)[C@@H](C)[C@@H]1c1cccs1,"inconclusive: 14.6 µM [activator, partial curve, poor fit]",
COc1ccc(C2CC(c3ccccc3)=NN2S(=O)(=O)c2ccccc2)cc1 (stereo not drawn),"inconclusive: 29.1 µM [falling, single point]",
Cc1ccc2nc(-c3cccc(NS(C)(=O)=O)c3)cc(-c3ccccc3)c2c1,"inconclusive: 20.6 µM [falling, single point]",
COc1ccc(/C=N/NC(=O)c2ccoc2C)cc1O,"inconclusive: 13 µM [activator, partial curve, poor fit]",
Cc1ccc(CNC(=O)c2ccc(CN3CC(=O)N4CCCCC4C3=O)cc2)cc1 (stereo not drawn),,inactive: -7.24%
CC(C)C(OC(=O)c1cc2occc2n1C)C(=O)NCc1ccc2c(c1)OCO2 (stereo not drawn),"inconclusive: 11.6 µM [falling, partial curve, poor fit]",
COCc1cc(=O)[nH]c(-c2csc(C)n2)n1,"inconclusive: 0.326 µM [falling, partial curve, poor fit]",
CC1(C)OC(=O)C(=NNc2ccc(O)cc2)C(=O)O1,"inconclusive: 4.11 µM [falling, full curve]",
Cc1ccccc1NC(=O)c1ccccc1-c1ccccc1,"inconclusive: 32.6 µM [activator, partial curve, poor fit]",
Cc1cccc(-n2cc(-c3ccccc3)c3c(=O)[nH]cnc32)c1,"inconclusive: 20.6 µM [falling, single point]",
Cc1ccc2oc(-c3ccc(C)c(NC(=O)/C=C/c4ccc(Cl)cc4)c3)nc2c1,"inconclusive: 9.2 µM [activator, partial curve]",
Cc1ccc(-c2nnc(Nc3ccc4c(c3)OCO4)c3ccccc23)cc1S(N)(=O)=O,"inconclusive: 20.6 µM [falling, single point]",
CC(=O)N1CCC(N(Cc2ccco2)C(=O)Nc2ccc(C)c(Cl)c2)CC1,,inactive: 22.8%
CC(C)N1C(=O)c2ccccc2C1C(=O)NCCc1ccccc1 (stereo not drawn),,inactive: -3.72%
CCCCNC(=S)N/N=C1\C(=O)c2cccc3cccc1c23,"inconclusive: 7.31 µM [falling, partial curve]",
CCOC(=O)COc1ccc2ccccc2c1/C=C/[N+](=O)[O-],"inconclusive: 18.4 µM [falling, single point]",
CC(C)Cc1nc2oc3c(N4CCN(CCO)CC4)ncnc3c2c2c1CCCC2,,inactive: -10.3%
Cc1ccnc(NC(=O)Cc2ccc(-c3ccccc3)cc2)c1,"inconclusive: 16.4 µM [falling, single point]",

Structure (SMILES),Potency,"activity change, negative = inhibition"
O=C(CSc1ncccn1)NCc1cccc(Cl)c1,"inconclusive: 5.8 µM [activator, full curve]",
Cc1ccc(-c2cnc3ccccc3n2)cc1C,"inconclusive: 2.31 µM [activator, full curve]",
O=c1cccc2c1c1cc[nH]c3ccc(=O)n2c31,"inconclusive: 20.6 µM [falling, partial curve, poor fit]",
COc1ccc(CCNC(=O)CCC(=O)N2CCOc3ccccc32)cc1OC,"inconclusive: 0.103 µM [falling, full curve, poor fit]",
CC(C)CCNC(=O)Cn1c(-c2cccs2)cc2cc(F)ccc21,"inconclusive: 6.51 µM [activator, single point]",
NC(=O)c1c(NC(=O)c2cc3ccccc3o2)sc2c1CCC2,"inconclusive: 1.03 µM [activator, partial curve]",
COc1ccc(NC(=O)COC(=O)c2cc(OC)c(OC)cc2NC(=O)c2ccco2)cc1OC,active: 5.8 µM,
Cc1ccc(NC(=O)C2CCN(c3nnc(C)c4c(C)n(-c5ccccc5)nc34)CC2)c(Cl)c1,"inconclusive: 6.51 µM [activator, partial curve, poor fit]",
CCOC(=O)N1N=C(c2ccc(OC)cc2)CC1(O)C(F)(F)F (stereo not drawn),"inconclusive: 0.461 µM [activator, full curve, poor fit]",
Cc1ccc(S(=O)(=O)c2ccc(Cl)cc2)cc1S(=O)(=O)N1CCN(C)CC1,"inconclusive: 18.4 µM [falling, partial curve]",
Cc1nc2ccc(NC(=O)c3ccc(S(=O)(=O)N(C)c4ccccc4)cc3)cc2s1,"inconclusive: 25.9 µM [falling, single point]",
Cc1ccc(S(=O)(=O)/N=C(/c2ccc(F)cc2)N2CCCC2)cc1,,inactive: 16%
O=C(CN1C(=O)S/C(=C\c2ccccc2F)C1=O)NCCCn1ccnc1,"inconclusive: 11.6 µM [activator, partial curve, poor fit]",
CCCCOc1ccc(Cn2c(=O)oc3ccc(C)cc32)cc1OC,"inconclusive: 20.6 µM [falling, single point]",
Cc1nn(Cc2ccc(Cl)c(Cl)c2)c(C)c1NC(=O)c1sc2ccccc2c1Cl,active: 14.6 µM,
CCc1c(C)nc2nncn2c1NCc1ccccc1,"inconclusive: 25.9 µM [falling, partial curve, poor fit]",
O=S1(=O)c2ccccc2N(Cc2ccc(Cl)cc2)c2ccccc21,"inconclusive: 32.6 µM [activator, single point]",
CC(=O)c1c(C)[nH]c(C(=O)CSc2nnc3ccccn23)c1C,"inconclusive: 29.1 µM [activator, single point]",
CCN(CC)C(=O)c1ccc(S(=O)(=O)N2CCC(c3nc4ccccc4s3)CC2)cc1,"inconclusive: 8.2 µM [falling, partial curve]",
O=C(NCc1nc(-c2ccccc2)no1)c1ccc2c(c1)OCO2,"inconclusive: 0.164 µM [falling, full curve, poor fit]",
Cc1cc(C)c(C#N)c(N2CCN(C(=O)C3COc4ccccc4O3)CC2)n1 (stereo not drawn),"inconclusive: 16.4 µM [falling, partial curve, poor fit]",

Structure (SMILES),Potency,"activity change, negative = inhibition"
CC(C(=O)N1CCN(c2ccc(Cl)cc2)CC1)c1ncc(C(F)(F)F)cc1Cl (stereo not drawn),"inconclusive: 25.9 µM [falling, partial curve, poor fit]",
Cc1ccc(/C=C/c2nnc(-c3cccs3)o2)cc1,"inconclusive: 2.06 µM [activator, partial curve]",
Cc1ccccc1Cn1c(=O)n(CCCC(=O)NCc2ccco2)c(=O)c2sccc21,"inconclusive: 0.0326 µM [falling, full curve, poor fit]",
Cc1cc(NCc2ccccn2)n2ncc(-c3ccc(Cl)cc3)c2n1,"inconclusive: 5.17 µM [activator, full curve, poor fit]",
O=C(COc1cccc(Cl)c1)NCC(c1cccs1)N1CCOCC1 (stereo not drawn),"inconclusive: 20.6 µM [falling, single point]",
CC1(c2ccccn2)Nc2ccccc2-c2nc3ccccc3n21 (stereo not drawn),,inactive: 11.7%
CCOC(=O)C1=C(C2=CCCCC2)c2ccc(OC)cc2N(S(=O)(=O)C(F)(F)F)C1C(=O)OCC (stereo not drawn),,inactive: 20.1%
COc1ccc(-c2cc(C(=O)N3CCN(c4ccccc4)CC3)no2)cc1,"inconclusive: 29.1 µM [falling, single point] and inconclusive: 3.66 µM [falling, single point]",
O=C(COc1ccc2ccccc2c1)Nc1ccc(Cc2ccncc2)cc1,active: 14.6 µM,
Cc1cc(/C=C2/SC(=S)N(c3ccc([N+](=O)[O-])cc3)C2=O)c(C)n1-c1cccnc1,active: 6.51 µM,
CCCc1cc(-c2nc(N)ncc2-c2ccc3c(c2)OCCCO3)c(O)cc1OC,"inconclusive: 29.1 µM [falling, single point]",
CC(=O)c1ccc(NC(=S)NCc2cccnc2)cc1,"inconclusive: 1.84 µM [falling, partial curve]",
C=Cc1ccc(Cn2c(=O)n(-c3cccc(Cl)c3)c(=O)c3c4c(sc32)CN(C(C)=O)CC4)cc1,"inconclusive: 29.1 µM [falling, single point]",
Nc1nnc(SCc2ccccc2F)s1,"inconclusive: 20.6 µM [activator, single point]",
CCc1cc2c(CN(C)Cc3ccccc3F)cc(=O)oc2cc1O,"inconclusive: 29.1 µM [activator, single point]",
CCOCCCNC(=O)c1cn(C)c2ccc(S(=O)(=O)N3CCCCC3)cc2c1=O,"inconclusive: 3.26 µM [falling, single point]",
COc1cccc(NC(=O)Nc2nnc(N3C(C)CCCC3C)s2)c1 (stereo not drawn),"inconclusive: 25.9 µM [activator, partial curve, poor fit]",
O=C(CCc1nc(-c2ccccc2)c(-c2ccccc2)o1)OCc1ccc(Br)cc1,,inactive: -7.72%
Cc1ccc(/C=C2/Sc3ccc(C(=O)N4CCN(C)CC4)cc3NC2=O)cc1,"inconclusive: 3.66 µM [falling, partial curve, poor fit]",
O=[N+]([O-])c1ccc(Sc2cccc3cccnc23)cc1,,inactive: -14.1%
CC(=O)Nc1ccc(OC2=NS(=O)(=O)c3ccccc32)cc1,"inconclusive: 14.6 µM [activator, partial curve, poor fit]",

# From PubChem BioAssay AID504444 (National Center for Advancing Translational Sciences (NCATS), 2011)
